Results reported in PMC4196752.
Results are given in words; binding and its absence hold for the method and conditions named. Binding seen in cells or lysates may run through a third protein. Some entries that bind do so weakly or less than the wild type. Tags and fused reporters may be left off the sequences shown.

T1: Pcf1-YFP (large subunit of fission yeast CAF-1) (S. pombe) (UniProt Q1MTN9)
T1 sequence: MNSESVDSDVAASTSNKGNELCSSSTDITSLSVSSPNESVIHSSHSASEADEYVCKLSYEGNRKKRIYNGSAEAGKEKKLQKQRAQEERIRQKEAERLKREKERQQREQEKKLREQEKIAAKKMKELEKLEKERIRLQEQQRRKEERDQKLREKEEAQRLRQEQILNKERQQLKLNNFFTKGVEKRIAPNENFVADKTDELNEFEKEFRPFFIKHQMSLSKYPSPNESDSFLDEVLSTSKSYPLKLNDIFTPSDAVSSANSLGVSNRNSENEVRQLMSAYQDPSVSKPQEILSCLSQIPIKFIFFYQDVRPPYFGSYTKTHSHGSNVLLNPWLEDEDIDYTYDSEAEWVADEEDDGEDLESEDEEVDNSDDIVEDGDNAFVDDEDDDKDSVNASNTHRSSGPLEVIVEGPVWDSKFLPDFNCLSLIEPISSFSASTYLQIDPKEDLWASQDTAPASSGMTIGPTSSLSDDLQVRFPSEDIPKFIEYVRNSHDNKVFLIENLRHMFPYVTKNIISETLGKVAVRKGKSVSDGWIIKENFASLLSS

B1: Pcf2-MYC (protein, UniProt O13985 1-512)
chain: MRAEVLQIRWHYDANDDHTPIYSVDFQKNSLNKFATCGGDSKIRIWQLITSESSTKVEYLSTLSRHTQAVNVVRFNPEGNILATAGDEGTIMLWVPTNTPITTLADDAEELALAKEYWKVKIVCRSMGSEIYDLCWSVDSNFLIAGAMDNSLRLYDAHTGQLLTQKFDHSHYVQGVCWDPLNQYIVSESSDRSICLYEIQEEKKNPKKFQLVLKSRICRIEYNVTKFELISVTKPLNNDESSGISEPIETSNNNESPVSKHEALSSTANIVKDGSLERTEPPNSLNSKISYSLYCNETLVSFFRRPAFSPDGLLLVTPAGRLRPHGQPNFEVPYTAYIYTRGSITKQPVACLNGFKKPVIAVRFSPIHYELNSFSNFSFTSVSFNLPYRMVFAVACQDAVYIYDTQTCKPFYRAVNLHYSNLTDIAWNDDGNVLLMTSIDGFCSVITFEPGELGVKSQHKISLPEKRSASPSSIDDSQDNTAGGPATTTLIPRKVESSKVSKKRIAPTPVYP
B2: Rqh1-MYC (enzyme, UniProt Q09811 1-1328)
chain: MTVTKTNLNRHLDWFFRESPQKIENVTSPIKTLDFVKVKVSSSDIVVKDSIPHKSKNVFDDFDDGYAIDLTEEHQSSSLNNLKWKDVEGPNILKPIKKIAVPASESEEDFDDVDEEMLRAAEMEVFQSCQPLAVNTADTTVSHSTSSSNVPRSLNKIHDPSRFIKDNDVENRIHVSSASKVASISNTSKPNPIVSENPISATSVSIEIPIKPKELSNNLPFPRLNNNNTNNNNDNNAIEKRDSASPTPSSVSSQISIDFSTWPHQNLLQYLDILRDEKSEISDRIIEVMERYPFSSRFKEWIPKRDILSQKISSVLEVLSNNNNSNNNNGNNGTVPNAKTFFTPPSSITQQVPFPSTIIPESTVKENSTRPYVNSHLVANDKITATPFHSEAVVSPLQSNIRNSDIAEFDEFDIDDADFTFNTTDPINDESGASSDVVVIDDEEDDIENRPLNQALKASKAAVSNASLLQSSSLDRPLLGEMKDKNHKVLMPSLDDPMLSYPWSKEVLGCLKHKFHLKGFRKNQLEAINGTLSGKDVFILMPTGGGKSLCYQLPAVIEGGASRGVTLVISPLLSLMQDQLDHLRKLNIPSLPLSGEQPADERRQVISFLMAKNVLVKLLYVTPEGLASNGAITRVLKSLYERKLLARIVIDEAHCVSHWGHDFRPDYKQLGLLRDRYQGIPFMALTATANEIVKKDIINTLRMENCLELKSSFNRPNLFYEIKPKKDLYTELYRFISNGHLHESGIIYCLSRTSCEQVAAKLRNDYGLKAWHYHAGLEKVERQRIQNEWQSGSYKIIVATIAFGMGVDKGDVRFVIHHSFPKSLEGYYQETGRAGRDGKPAHCIMFYSYKDHVTFQKLIMSGDGDAETKERQRQMLRQVIQFCENKTDCRRKQVLAYFGENFDKVHCRKGCDICCEEATYIKQDMTEFSLQAIKLLKSISGKATLLQLMDIFRGSKSAKIVENGWDRLEGAGVGKLLNRGDSERLFHHLVSEGVFVEKVEANRRGFVSAYVVPGRQTIINSVLAGKRRIILDVKESSSKPDTSSRSLSRSKTLPALREYQLKSTTASVDCSIGTREVDEIYDSQMPPVKPSLIHSRNKIDLEELSGQKFMSEYEIDVMTRCLKDLKLLRSNLMAIDDSRVSSYFTDSVLLSMAKKLPRNVKELKEIHGVSNEKAVNLGPKFLQVIQKFIDEKEQNLEGTELDPSLQSLDTDYPIDTNALSLDHEQGFSDDSDSVYEPSSPIEEGDEEVDGQRKDILNFMNSQSLTQTGSVPKRKSTSYTRPSKSYRHKRGSTSYSRKRKYSTSQKDSRKTSKSANTSFIHPMVKQNYR
B3: endogenous Rqh1 (enzyme, UniProt Q09811 1-1328)
chain: MTVTKTNLNRHLDWFFRESPQKIENVTSPIKTLDFVKVKVSSSDIVVKDSIPHKSKNVFDDFDDGYAIDLTEEHQSSSLNNLKWKDVEGPNILKPIKKIAVPASESEEDFDDVDEEMLRAAEMEVFQSCQPLAVNTADTTVSHSTSSSNVPRSLNKIHDPSRFIKDNDVENRIHVSSASKVASISNTSKPNPIVSENPISATSVSIEIPIKPKELSNNLPFPRLNNNNTNNNNDNNAIEKRDSASPTPSSVSSQISIDFSTWPHQNLLQYLDILRDEKSEISDRIIEVMERYPFSSRFKEWIPKRDILSQKISSVLEVLSNNNNSNNNNGNNGTVPNAKTFFTPPSSITQQVPFPSTIIPESTVKENSTRPYVNSHLVANDKITATPFHSEAVVSPLQSNIRNSDIAEFDEFDIDDADFTFNTTDPINDESGASSDVVVIDDEEDDIENRPLNQALKASKAAVSNASLLQSSSLDRPLLGEMKDKNHKVLMPSLDDPMLSYPWSKEVLGCLKHKFHLKGFRKNQLEAINGTLSGKDVFILMPTGGGKSLCYQLPAVIEGGASRGVTLVISPLLSLMQDQLDHLRKLNIPSLPLSGEQPADERRQVISFLMAKNVLVKLLYVTPEGLASNGAITRVLKSLYERKLLARIVIDEAHCVSHWGHDFRPDYKQLGLLRDRYQGIPFMALTATANEIVKKDIINTLRMENCLELKSSFNRPNLFYEIKPKKDLYTELYRFISNGHLHESGIIYCLSRTSCEQVAAKLRNDYGLKAWHYHAGLEKVERQRIQNEWQSGSYKIIVATIAFGMGVDKGDVRFVIHHSFPKSLEGYYQETGRAGRDGKPAHCIMFYSYKDHVTFQKLIMSGDGDAETKERQRQMLRQVIQFCENKTDCRRKQVLAYFGENFDKVHCRKGCDICCEEATYIKQDMTEFSLQAIKLLKSISGKATLLQLMDIFRGSKSAKIVENGWDRLEGAGVGKLLNRGDSERLFHHLVSEGVFVEKVEANRRGFVSAYVVPGRQTIINSVLAGKRRIILDVKESSSKPDTSSRSLSRSKTLPALREYQLKSTTASVDCSIGTREVDEIYDSQMPPVKPSLIHSRNKIDLEELSGQKFMSEYEIDVMTRCLKDLKLLRSNLMAIDDSRVSSYFTDSVLLSMAKKLPRNVKELKEIHGVSNEKAVNLGPKFLQVIQKFIDEKEQNLEGTELDPSLQSLDTDYPIDTNALSLDHEQGFSDDSDSVYEPSSPIEEGDEEVDGQRKDILNFMNSQSLTQTGSVPKRKSTSYTRPSKSYRHKRGSTSYSRKRKYSTSQKDSRKTSKSANTSFIHPMVKQNYR

Biological target: T1, Pcf1-YFP (large subunit of fission yeast CAF-1) (S. pombe)
Assay: co-IP; S. pombe extract in EB buffer (50 mM HEPES, 50 mM KOAc pH 7.5, 5 mM EGTA, 1% triton X-100); Pcf1-YFP or Pcf1PIP^mut-YFP precipitated with anti-GFP and Dynabeads protein-G at 4°C; Western blot with anti-GFP, anti-Myc, Rqh1 antibody, anti-PCNA

binding, binds:
B1, B2, B3
